The supplement of paper PMC12823440, “Inhibitors supercharge kinase turnover through native proteolytic circuits” (Nature, 2025)
Structures can show the parent of a compound that is named as a salt. The list shows a part of the results. The calls rarely recur for the same compound in another form.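 Kinases, fused to nanoluciferase, were expressed in K562 cells; luminescence was measured every 4 h from 2 to 18 h as percent of control (DMSO = 100%, positive control = 0%). A time point is decreased if signal falls significantly (2 sigma). Hits were called by the authors by a rule that is not shown; the count of time points alone does not decide it.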

Sequences of proteins named here, by UniProt entry; tags and fusion partners are left off.
UniProt Q15418, whole entry: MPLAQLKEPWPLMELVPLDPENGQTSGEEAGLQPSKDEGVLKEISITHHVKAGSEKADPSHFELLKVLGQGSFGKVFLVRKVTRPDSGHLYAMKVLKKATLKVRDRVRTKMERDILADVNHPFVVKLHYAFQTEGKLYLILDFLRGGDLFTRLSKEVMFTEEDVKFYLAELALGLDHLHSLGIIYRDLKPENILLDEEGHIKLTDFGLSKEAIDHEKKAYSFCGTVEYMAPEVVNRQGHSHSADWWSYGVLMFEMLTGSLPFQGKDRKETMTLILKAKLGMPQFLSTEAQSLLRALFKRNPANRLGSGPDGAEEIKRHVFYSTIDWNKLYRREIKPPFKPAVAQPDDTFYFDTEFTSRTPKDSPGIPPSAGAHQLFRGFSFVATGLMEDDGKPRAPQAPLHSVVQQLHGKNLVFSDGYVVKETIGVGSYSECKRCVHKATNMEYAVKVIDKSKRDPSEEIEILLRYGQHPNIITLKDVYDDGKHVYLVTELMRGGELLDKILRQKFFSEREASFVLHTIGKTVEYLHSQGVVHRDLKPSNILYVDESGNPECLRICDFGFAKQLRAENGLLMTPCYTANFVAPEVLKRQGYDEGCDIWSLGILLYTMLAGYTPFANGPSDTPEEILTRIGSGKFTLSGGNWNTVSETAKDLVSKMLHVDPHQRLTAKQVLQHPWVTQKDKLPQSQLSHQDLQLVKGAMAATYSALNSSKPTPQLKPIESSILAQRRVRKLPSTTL
UniProt Q9NYA1, whole entry: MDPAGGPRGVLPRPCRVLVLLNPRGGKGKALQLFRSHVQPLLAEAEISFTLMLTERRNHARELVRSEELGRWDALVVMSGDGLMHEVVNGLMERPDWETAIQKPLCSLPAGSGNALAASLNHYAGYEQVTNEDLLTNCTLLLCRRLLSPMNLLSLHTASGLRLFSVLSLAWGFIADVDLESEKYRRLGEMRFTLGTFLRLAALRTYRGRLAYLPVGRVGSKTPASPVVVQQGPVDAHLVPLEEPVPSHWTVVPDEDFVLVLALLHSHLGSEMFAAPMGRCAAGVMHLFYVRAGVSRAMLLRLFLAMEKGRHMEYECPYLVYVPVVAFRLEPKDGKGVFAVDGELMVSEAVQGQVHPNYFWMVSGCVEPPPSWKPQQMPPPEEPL

Molecular target: RPS6KA1 (UniProt Q15418)
Experiment: kinase-Nluc reporter destabilization hit call (1 = scored as downregulated) (binary); higher = compound decreases kinase abundance
Conditions: K562; 2-18 h

kinase-Nluc reporter destabilization hit call, inactive:
COc1cc(/C=C/C(=O)NCC(O)c2ccc(O)cc2)ccc1O (stereo not given) [N-Feruloyloctopamine] (2.5 µM) 0, COc1cc2nccc(Oc3ccc(NC(=O)NC4CC4)c(Cl)c3)c2cc1C(N)=O [Lenvatinib (mesylate)] (10 µM) 0, CN1CCN(c2cccc(Nc3nc4c(-c5ccc(S(C)(=O)=O)cc5)cccn4n3)c2)CC1 (10 µM) 0, C=C(CC[C@@H](C(=O)O)[C@H]1[C@H](O)C[C@@]2(C)C3=C(CC[C@]12C)[C@@]1(C)CC[C@H](OC(C)=O)C(C)(C)[C@@H]1CC3)C(C)C [Pachymic acid] (10 µM) 0, O=c1[nH]c(=O)n([C@@H]2O[C@H](CO)[C@@H](O)[C@@H]2O)cc1/C=C/Br [Sorivudine] (10 µM) 0, NC(=O)c1ccc(-c2nc(-c3ccc4c(c3)OCCO4)c(-c3ccccn3)[nH]2)cc1 (10 µM) 0, CC#CC(=O)Nc1ccc2ncnc(Nc3cccc(Br)c3)c2c1 (10 µM) 0, CCc1c(C(=O)NNC(=O)C(O)c2cc(F)cc(F)c2)ccc(O)c1C (stereo not given) (10 µM) 0, CC(=O)c1c(C)cc2cccc(O)c2c1O [Nepodin] (10 µM) 0, Cc1c(-c2c(F)cc(C(N)=O)c3[nH]c4c(c23)CC[C@H](C(C)(C)O)C4)cccc1-n1c(=O)c2cccc(F)c2n(C)c1=O (2.5 µM) 0, CCc1cc2c(cc1N1CCC(N3CCOCC3)CC1)C(C)(C)c1[nH]c3cc(C#N)ccc3c1C2=O [Alectinib] (10 µM) 0, FC(F)c1nc2ccccc2n1-c1nc(N2CCOCC2)nc(N2CCOCC2)n1 (2 µM) 0, FC(F)(c1ccc2ncccc2c1)c1nnc2ccc(-c3ccncc3)nn12 (10 µM) 0, Cn1cc(-c2cnn3c(N)c(Br)c([C@@H]4CCCNC4)nc23)cn1 (2.5 µM) 0, C[C@@H]1COCCN1c1cc(C2([S@@](C)(=N)=O)CC2)nc(-c2ccnc3[nH]ccc23)n1 [(S)-Ceralasertib] (10 µM) 0, CC#CC(=O)N1CC[C@@H](n2c(=O)n(-c3ccc(Oc4ccccc4)cc3)c3c(N)ncnc32)C1 [Tirabrutinib] (10 µM) 0, C[C@@]1(c2ncncc2F)NC(=O)c2cc(-c3cn[nH]c3)ccc21 (10 µM) 0, COc1ccc(Cl)c(Nc2nc3ccccc3nc2NS(=O)(=O)c2cccc(NC(=O)C(C)(C)N)c2)c1 [Pilaralisib] (10 µM) 0, O=Nc1c(-c2c(O)[nH]c3ccc(I)cc23)[nH]c2ccccc12 [5-Iodo-indirubin-3'-monoxime] (10 µM) 0, COc1cc2nccc(Oc3ccc(NC(=O)NC4CC4)c(Cl)c3)c2cc1C(N)=O [Lenvatinib] (10 µM) 0, C[C@]1(O)CCN(c2nc(N3C[C@H](O)[C@@H](O)C3)cc(C(F)(F)F)c2C#N)C1 (10 µM) 0, Cn1cnc(Cn2ccc3ccc(CNCc4[nH]c5ccccc5c4[C@H]4NC(=O)c5ccc(O)cc54)cc32)c1 (10 µM) 0

Molecular target: SPHK1 (UniProt Q9NYA1)
Experiment: as above
Conditions: K562; 2-18 h

kinase-Nluc reporter destabilization hit call, inactive:
O=C(CSC1=NCCN1)NC1CCCCCC1 [ICCB-19 (hydrochloride)] (2.5 µM) 0, CCCS(=O)(=O)Nc1ccc(F)c(C(=O)c2c[nH]c3ncc(-c4ccc(Cl)cc4)cc23)c1F [Vemurafenib] (10 µM) 0, Cc1ccc(OCCSc2ncccn2)c(Br)c1 [ZLN024 (hydrochloride)] (10 µM) 0, Nc1ncnc2c1c(-c1ccc(Oc3ccccc3)cc1)nn2C1CCCC1 (2.5 µM) 0, COc1ncc(Cl)cc1S(=O)(=O)Nc1ccc(F)c(C#Cc2cnc(N)nc2)c1F (2.5 µM) 0, Cc1ccc(CNc2ncnc3ccc(-c4ccc(CO)o4)cc23)o1 (10 µM) 0, NC(=O)c1nnc(N[C@@H]2CCCC[C@@H]2N)nc1Nc1cccc2cc[nH]c12 (10 µM) 0, CNc1nc(Nc2ccc(C(=O)N3CCOCC3)cc2OC)nc2[nH]cc(Cl)c12 (2.5 µM) 0, CCNc1nc(Nc2cc(F)c(C(=O)N3CCOCC3)cc2OC)ncc1C(F)(F)F [GNE-7915 (tosylate)] (10 µM) 0, CCN1CCN(Cc2ccc(Nc3ncc(F)c(-c4cc(F)c5nc(C)n(C(C)C)c5c4)n3)nc2)CC1 [Abemaciclib] (2 µM) 0, COCCNc1nc2ccc(C#CC3(O)CCCCC3)cc2n1-c1ccnc(N)n1 (10 µM) 0, OCCn1cc(-c2ccc3c(c2)CC/C3=N\O)c(-c2ccncc2)n1 (10 µM) 0, O=C1N[C@@H](Cc2c[nH]c3ccccc23)C(=O)N2CCC[C@@H]12 [Brevianamide F] (10 µM) 0, Cn1nccc1Nc1nccc(-c2ccn([C@H](CO)c3ccc(Cl)c(F)c3)c(=O)c2)n1 [Ravoxertinib] (10 µM) 0, O=C(NCCN1CCOCC1)c1cc2c(Oc3ccc(NC(=O)C4(C(=O)Nc5ccc(F)cc5)CC4)cc3)ccnc2[nH]1 [Tyrosine kinase inhibitor] (10 µM) 0, COc1cc2c(N3CCN(C(=O)Nc4ccc(OC(C)C)cc4)CC3)ncnc2cc1OCCCN1CCCCC1 [Tandutinib (hydrochloride)] (10 µM) 0, COc1cc(/C=C/C(=O)NCC(O)c2ccc(O)cc2)ccc1O (stereo not given) [N-Feruloyloctopamine] (2.5 µM) 0, COc1cc2nccc(Oc3ccc(NC(=O)NC4CC4)c(Cl)c3)c2cc1C(N)=O [Lenvatinib (mesylate)] (10 µM) 0, CN1CCN(c2cccc(Nc3nc4c(-c5ccc(S(C)(=O)=O)cc5)cccn4n3)c2)CC1 (10 µM) 0, C=C(CC[C@@H](C(=O)O)[C@H]1[C@H](O)C[C@@]2(C)C3=C(CC[C@]12C)[C@@]1(C)CC[C@H](OC(C)=O)C(C)(C)[C@@H]1CC3)C(C)C [Pachymic acid] (10 µM) 0, O=c1[nH]c(=O)n([C@@H]2O[C@H](CO)[C@@H](O)[C@@H]2O)cc1/C=C/Br [Sorivudine] (10 µM) 0, NC(=O)c1ccc(-c2nc(-c3ccc4c(c3)OCCO4)c(-c3ccccn3)[nH]2)cc1 (10 µM) 0, CC#CC(=O)Nc1ccc2ncnc(Nc3cccc(Br)c3)c2c1 (10 µM) 0, CCc1c(C(=O)NNC(=O)C(O)c2cc(F)cc(F)c2)ccc(O)c1C (stereo not given) (10 µM) 0, CC(=O)c1c(C)cc2cccc(O)c2c1O [Nepodin] (10 µM) 0, Cc1c(-c2c(F)cc(C(N)=O)c3[nH]c4c(c23)CC[C@H](C(C)(C)O)C4)cccc1-n1c(=O)c2cccc(F)c2n(C)c1=O (2.5 µM) 0, CCc1cc2c(cc1N1CCC(N3CCOCC3)CC1)C(C)(C)c1[nH]c3cc(C#N)ccc3c1C2=O [Alectinib] (10 µM) 0, FC(F)c1nc2ccccc2n1-c1nc(N2CCOCC2)nc(N2CCOCC2)n1 (2 µM) 0, FC(F)(c1ccc2ncccc2c1)c1nnc2ccc(-c3ccncc3)nn12 (10 µM) 0, Cn1cc(-c2cnn3c(N)c(Br)c([C@@H]4CCCNC4)nc23)cn1 (2.5 µM) 0, C[C@@H]1COCCN1c1cc(C2([S@@](C)(=N)=O)CC2)nc(-c2ccnc3[nH]ccc23)n1 [(S)-Ceralasertib] (10 µM) 0, CC#CC(=O)N1CC[C@@H](n2c(=O)n(-c3ccc(Oc4ccccc4)cc3)c3c(N)ncnc32)C1 [Tirabrutinib] (10 µM) 0, C[C@@]1(c2ncncc2F)NC(=O)c2cc(-c3cn[nH]c3)ccc21 (10 µM) 0, COc1ccc(Cl)c(Nc2nc3ccccc3nc2NS(=O)(=O)c2cccc(NC(=O)C(C)(C)N)c2)c1 [Pilaralisib] (10 µM) 0, O=Nc1c(-c2c(O)[nH]c3ccc(I)cc23)[nH]c2ccccc12 [5-Iodo-indirubin-3'-monoxime] (10 µM) 0, COc1cc2nccc(Oc3ccc(NC(=O)NC4CC4)c(Cl)c3)c2cc1C(N)=O [Lenvatinib] (10 µM) 0, C[C@]1(O)CCN(c2nc(N3C[C@H](O)[C@@H](O)C3)cc(C(F)(F)F)c2C#N)C1 (10 µM) 0, Cn1cnc(Cn2ccc3ccc(CNCc4[nH]c5ccccc5c4[C@H]4NC(=O)c5ccc(O)cc54)cc32)c1 (10 µM) 0
